# According to PubChem BioAssay AID1671190 (National Center for Advancing Translational Sciences (NCATS), 2021):
# By UniProt entry, the sequences of proteins in these tests, tags left out. Where a name states a change or a piece, a line headed by the entry shows the natural chain unless it says otherwise.
# UniProt P18054: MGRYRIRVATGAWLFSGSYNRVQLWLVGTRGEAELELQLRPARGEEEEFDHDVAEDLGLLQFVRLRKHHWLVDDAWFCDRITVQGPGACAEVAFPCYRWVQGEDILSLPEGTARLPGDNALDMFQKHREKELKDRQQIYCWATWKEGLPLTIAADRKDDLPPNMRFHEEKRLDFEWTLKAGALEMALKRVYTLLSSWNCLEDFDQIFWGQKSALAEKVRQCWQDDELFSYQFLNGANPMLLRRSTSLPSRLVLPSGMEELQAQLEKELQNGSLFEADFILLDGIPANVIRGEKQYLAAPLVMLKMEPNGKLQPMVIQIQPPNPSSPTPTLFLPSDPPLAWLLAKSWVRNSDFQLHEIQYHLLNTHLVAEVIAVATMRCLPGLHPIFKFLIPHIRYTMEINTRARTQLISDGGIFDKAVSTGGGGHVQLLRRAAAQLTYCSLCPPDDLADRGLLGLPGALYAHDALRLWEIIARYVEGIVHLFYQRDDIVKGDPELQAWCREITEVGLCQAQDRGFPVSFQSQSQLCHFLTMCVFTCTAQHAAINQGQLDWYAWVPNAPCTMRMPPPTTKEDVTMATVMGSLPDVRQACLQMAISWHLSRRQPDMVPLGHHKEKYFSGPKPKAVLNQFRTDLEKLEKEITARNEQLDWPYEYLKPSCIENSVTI
# The whole screen tested about 580,000 compounds, of which about 6,100 (1.1%) were called active. Inconclusive results, whose numbers are uncertain, are shown with a selection of clear calls. Calls come from the whole dose curve; as a rule, active = well fitted inhibition curve with a large enough effect; inconclusive = small, poorly fitted or top-dose-only effect, or another doubt; inactive = no such curve, though single readings can be large or run the other way. A potency beside an inconclusive call is a rough fit, not a confirmed value.
# Biological target: Polyunsaturated fatty acid lipoxygenase ALOX12 (Homo sapiens) (UniProt P18054)
# Test: Primary qHTS assay for inhibitors of human arachidonate 12S-lipoxygenase (ALOX12): Round 2
# Conditions: purified 12hLO, xylenol orange hydroperoxide absorbance; activity change, negative = inhibition: at 108 µM (top of the series) unless noted
# Procedure, shortened: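 Hydroperoxide product was detected by ferrous iron/xylenol orange as the 573 to 405 nm absorbance ratio. Arachidonic acid at 40 uM (final) was turned over for 30 min at room temperature by 150 nM human 12hLO, pH 7.0 Hepes buffer, after 15 min compound preincubation.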
# % is set by controls: 0 for no effect and ±100 for the full control effect; potency is the fitted concentration of half-maximal effect.
Compound,Potency,"activity change, negative = inhibition"
CCC(C)NC(=S)Nc1ccccc1 (stereo not given),"inconclusive: 0.282 µM [inhibitor, full curve, poor fit]",
O=C(c1cccs1)N1CCC(O)(c2ccccc2)[C@H](N2CCCC2)C1 (stereo not given in full),,inactive: 251%
Cc1ccc(C)c(S(=O)(=O)c2nnn3c2nc(Nc2ccc(C)c(C)c2)c2sccc23)c1,,inactive: -16.7%
COc1ccc(N2C(=O)CS(=O)(=O)C23C(=O)N(Cc2cccc(F)c2)c2ccccc23)cc1OC (stereo not given),,inactive: -19.1%
CC(C)n1c(=S)[nH]c2cc(Cl)ccc21,"inconclusive: 35.5 µM [inhibitor, partial curve, poor fit]",
O=C(CSc1ccc2ccccc2n1)NC1CCS(=O)(=O)C1 (stereo not given),"inconclusive: 44.7 µM [inhibitor, partial curve, poor fit]",
O=C(O)C1=C(C2CCCCC2)C(=O)c2ccccc21,,inactive: -14.6%
COc1cc(N=Cc2c(CO)cnc(C)c2O)cc(OC)c1OC,"inconclusive: 25.1 µM [inhibitor, partial curve, poor fit]",
Cn1c(-c2ccccc2)c(C(=O)C(=O)NCc2ccccc2)c2ccccc21,"inconclusive: 126 µM [inhibitor, single point]",
Cn1nc(C2CCNC2)c2c(C(=O)NCc3ccncc3)cc(C3CC3)nc21 (stereo not given),"inconclusive: 6.31 µM [inhibitor, full curve, poor fit]",
CCOC(=O)c1ccc(-n2c(CCC(=O)O)ccc2-c2ccc(Br)cc2)cc1,"inconclusive: 50.1 µM [inhibitor, partial curve, poor fit]",
Cc1ccc(NC(=O)Cn2cc(/C=C3\NC(=O)NC3=O)c3ccccc32)cc1,"inconclusive: 79.4 µM [inhibitor, single point]",
CCOC(=O)c1c(-c2cccc([N+](=O)[O-])c2)csc1NC(=O)C1CC1,,inactive: -0.161%
Cc1[nH]c2ccc(C(=O)N(C)C3CCS(=O)(=O)C3)cc2c1C (stereo not given),,inactive: 31.1%
Fc1ccc(-c2noc(CCc3nc4ccccc4[nH]3)n2)cc1,,inactive: 7%
COC(=O)c1c(NC(C)=O)c2cc(NC(C)CC(C)(C)O)cnc2n1CCC(C)C (stereo not given),,inactive: 42.5%
CC(C)(CNC(=O)c1ccc([N+](=O)[O-])c(Cl)c1)CNC(=O)c1ccc([N+](=O)[O-])c(Cl)c1,,inactive: 12.4%
CCc1ccc(-c2cc(N)n(-c3ccccc3)n2)cc1,,inactive: 0.686%
CCC(=O)N1CCc2cc(S(=O)(=O)CCC(=O)Nc3ccc(OC(F)(F)F)cc3)ccc21,"inconclusive: 141 µM [inhibitor, partial curve, poor fit]",
O=C(Nc1ccc(Br)cc1F)c1ccc2nc(N3CCOCC3)sc2c1,,inactive: -13.1%
CN1CCN(Cc2ccc(CNCc3ccc(C#N)cc3)cc2)CC1,"inconclusive: 39.8 µM [inhibitor, partial curve, poor fit]",
COc1ccc(C(c2c(N)[nH]c(=S)[nH]c2=O)c2c(N)[nH]c(=S)[nH]c2=O)cc1,"inconclusive: 28.2 µM [inhibitor, full curve, poor fit]",
Cc1ccc(CN2C(=O)NC3(CCN(C(=O)c4ccccn4)CC3)C2=O)cc1,"inconclusive: 20 µM [inhibitor, single point]",
CCn1c(=O)n(CC)c2cc(Sc3ccccc3)c(NC(=O)c3ccccc3)cc21,"inconclusive: 141 µM [inhibitor, partial curve, poor fit]",

Compound,Potency,"activity change, negative = inhibition"
Cc1cccc(OCc2ccc(C(N)=O)cc2)c1,,inactive: 6.88%
Cc1oc2c(c1C(=O)N1CCSCC1)CN(Cc1cccc(F)c1)CC2,"inconclusive: 7.94 µM [inhibitor, full curve]",
CCCC(=O)Nc1nc2ccc(CCC(=O)N3CCN(c4ccccc4F)CC3)cc2s1,,inactive: 4.53%
COc1ccccc1NC(=O)COC(=O)Cc1ccc(S(=O)(=O)N2CCCCC2)s1,"inconclusive: 3.98 µM [inhibitor, full curve, poor fit]",
COC(C(=O)Nc1ccc(Cl)cc1C)c1ccccc1 (stereo not given),"inconclusive: 50.1 µM [inhibitor, partial curve, poor fit]",
COc1cccc(C(NC(C)=O)c2nc(-c3ccccc3)cs2)c1 (stereo not given),"inconclusive: 89.1 µM [inhibitor, partial curve, poor fit]",
COc1ccc2cc(C[C@@H]3CC[C@@H](CO)O3)ccc2c1,,inactive: -18.7%
O=C(CSCc1ccc(Br)cc1)NCCc1ccccc1,,inactive: 11.9%
Cc1ccc(S(=O)(=O)N(CC(O)CN2CCCCC2)c2ccccc2)cc1 (stereo not given),"inconclusive: 100 µM [inhibitor, partial curve, poor fit]",
Cc1cc(O)ccc1NC(=O)COc1ccc2c(=O)c(-c3ccccc3)c(C)oc2c1,,inactive: 8.83%
CNC(=O)c1c(NC(=O)c2nn(-c3ccc(Cl)cc3)ccc2=O)sc2c1CCCC2,"inconclusive: 79.4 µM [inhibitor, single point]",
COc1ccc([C@@H]2CC=C(C(=O)O)[C@H](c3cccc(Cl)c3)N2S(=O)(=O)c2ccc(C)cc2)cc1OC,"inconclusive: 44.7 µM [inhibitor, partial curve, poor fit]",
CC(C)CNc1nc2ccccc2nc1S(=O)(=O)Cc1ccc(Cl)cc1,"inconclusive: 44.7 µM [inhibitor, partial curve, poor fit]",
COc1ccc(NC2CCCN(Cc3cccc4cnccc34)C2)cc1 (stereo not given),,inactive: 78.1%
CC(C)c1ccc(C(O)P(=O)(OCc2ccccc2)c2ccc(N(C)C)cc2)cc1 (stereo not given),"inconclusive: 126 µM [inhibitor, partial curve, poor fit]",
Cc1cc(NC(=O)c2cc(-c3ccc(C)c(C)c3)nc3ccccc23)no1,"inconclusive: 17.8 µM [inhibitor, full curve, poor fit]",
O=C(NCc1cccc(Cl)c1)c1ccc(CS(=O)Cc2ccc(Cl)cc2)o1 (stereo not given),,inactive: -28.3%
O=C(c1ccco1)N1CCN(C(c2ccccc2Cl)c2nnnn2Cc2ccco2)CC1 (stereo not given),"inconclusive: 7.08 µM [inhibitor, full curve, poor fit]",
O=S(=O)(c1ccc(Cl)cc1)c1snnc1-c1ccccc1,,inactive: 0%
O=S(=O)(Nc1nc(SCc2ccc(Cl)cc2)n[nH]1)c1ccc(F)cc1,"inconclusive: 100 µM [inhibitor, single point]",
N#CC1=C(c2ccccc2)/C(=C/c2ccccc2)OC1=O,"inconclusive: 4.47 µM [inhibitor, full curve, poor fit]",
CCC1CCC2(CC1)NC(=O)N(CC(=O)c1c(C)[nH]c3ccccc13)C2=O (stereo not given),"inconclusive: 141 µM [inhibitor, single point]",
COc1ccc(-n2nc(C(=O)NCC(=O)NCc3cccc(F)c3)c3ccccc3c2=O)cc1Cl,"inconclusive: 2.51 µM [inhibitor, full curve, poor fit]",
COc1cccc(-c2nnn(CC(=O)Nc3cc(OC)c(NC(=O)c4ccco4)cc3OC)n2)c1,"inconclusive: 126 µM [inhibitor, partial curve, poor fit]",

# Rewritten tab-delimited: entries from further up
Compound	Potency	activity change, negative = inhibition
CC(C)n1c(=S)[nH]c2cc(Cl)ccc21	inconclusive: 35.5 µM [inhibitor, partial curve, poor fit]	
COC(C(=O)Nc1ccc(Cl)cc1C)c1ccccc1 (stereo not given)	inconclusive: 50.1 µM [inhibitor, partial curve, poor fit]	

# Later entries:

Compound,Potency,"activity change, negative = inhibition"
O=c1nc(-c2ccccc2)c2ccccc2[nH]1,"inconclusive: 39.8 µM [inhibitor, single point]",
CN(C)S(=O)(=O)c1cc(NC(=O)CN2CCN(c3ccc(O)cc3)CC2)ccc1Cl,,inconclusive: -30.8% [inhibitor]
Fc1cccc(NC(=S)Nc2ccc(Br)cc2)c1,"inconclusive: 35.5 µM [inhibitor, partial curve, poor fit]",
Fc1ccc(NC(=S)Nc2cccc3ccccc23)cc1F,"inconclusive: 50.1 µM [inhibitor, partial curve, poor fit]",
Cn1cc(CNCc2cnc3ccccn23)c(-c2ccc(Oc3ccccc3)cc2)n1,,inactive: -0.61%
COc1cccc(CN2CCCn3nc(C)c(-c4cnccc4C)c32)c1,"inconclusive: 31.6 µM [inhibitor, single point]",
COc1cccc(N2C(=O)CN(C3CCCCC3)[C@H]3CS(=O)(=O)C[C@H]32)c1,"inconclusive: 50.1 µM [inhibitor, single point]",
COCCCn1c(=N)c(C(=O)NCc2ccco2)cc2c(=O)n3ccccc3nc21,,inactive: 0%
Cc1cc2ccccc2n1CCNC(=O)c1ccc(Br)o1,"inconclusive: 44.7 µM [inhibitor, partial curve, poor fit]",
O=C(/C=C/c1ccccc1O)c1ccc(Cl)cc1Cl,active: 39.8 µM,
COc1ccc(/C=N/NC(=S)NCC2CCCO2)cc1 (stereo not given),"inconclusive: 39.8 µM [inhibitor, partial curve, poor fit]",
CCC(C)(CNC(=O)c1cc(=O)c2ccccc2o1)N1CCOCC1 (stereo not given),,inactive: -26.4%
COC(=O)c1cn(NC(=O)/C=C/c2cc(OC)ccc2OC)c(=O)c2ccccc12,,inactive: 4.06%
CC1=C(C(=O)c2ccc(Cl)cc2)C(c2ccccc2)NC(=O)N1 (stereo not given),"inconclusive: 39.8 µM [inhibitor, partial curve, poor fit]",
O=c1n(-c2ccc(C(F)(F)F)cc2)nc2n1CCN(Cc1cccnc1)C2,,inactive: 5.59% [at 6.33 µM]
O=C(O)/C(=C\C=C\c1ccco1)NC(=O)c1ccccc1,active: 1.58 µM,
COC(=O)c1c(C)oc2ccc(N(C(C)=O)S(=O)(=O)c3ccccc3)cc12,,inactive: -9.1%
C=CCn1c(SCC(=O)NC(=O)NCCC)nnc1C1CCCCC1,,inactive: 0%
Cc1c(O)ccc(/C(Cc2ccc3ccccc3n2)=N\N)c1O,,inactive: 14.7%
CS(=O)(=O)c1ccc(C(=O)Nc2cc(S(C)(=O)=O)ccc2Cl)cc1,,inactive: -3.86%
Cc1cc(NC(=S)NC(=O)/C=C/c2ccc(S(=O)(=O)N3CCOCC3)cc2)ccc1Br,"inconclusive: 14.1 µM [inhibitor, full curve]",
Cc1ccc(Nc2nc(=O)c3cccnc3s2)cc1,"inconclusive: 126 µM [inhibitor, single point]",

# Pulled by compound from above (4):
Compound,Potency,"activity change, negative = inhibition"
Cc1cc2ccccc2n1CCNC(=O)c1ccc(Br)o1,"inconclusive: 44.7 µM [inhibitor, partial curve, poor fit]",
CN(C)S(=O)(=O)c1cc(NC(=O)CN2CCN(c3ccc(O)cc3)CC2)ccc1Cl,,inconclusive: -30.8% [inhibitor]
COc1cccc(CN2CCCn3nc(C)c(-c4cnccc4C)c32)c1,"inconclusive: 31.6 µM [inhibitor, single point]",
CC1=C(C(=O)c2ccc(Cl)cc2)C(c2ccccc2)NC(=O)N1 (stereo not given),"inconclusive: 39.8 µM [inhibitor, partial curve, poor fit]",
